Measured data: PubChem BioAssay AID1053208 (Peter MacCallum Cancer Centre, 2014)
In all, the deposit lists about 17,000 reagents; shown is a random part of them. Over the whole deposit, 788 (4.7%) got an active call. 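Calls rest on z-score classes alone; an extra cut-off of viability at most 70% of control was not applied to them.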 Entries without a mark were called inactive. Further read-outs or replicates are left out here.

- Screen: 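Genes whose silencing cuts survival of bone tumour cells only with doxorubicin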 (primary screen)
- Cell system: mouse osteosarcoma cells, early-passage culture from an engineered mouse model of fibroblastic bone tumour
- Reagents: siRNA pool against mouse genes, 40 nM
- Time to read-out: about 120 h (48 h before drug, then 72 h with drug)
- Conditions: doxorubicin 100 nM for 72 h, roughly 30-40% inhibitory dose
- Detection: 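Luminescent ATP signal taken as viability with or without 100 nM doxorubicin for 72 h; mean of two wells set against non-targeting siRNA and turned into robust z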
- Scale: viability z-score with doxorubicin: higher = more viable cells under doxorubicin; viability z-score without drug: higher = more viable cells with knock-down alone
- Hit rule: 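a pool counts as active when its viability z-score with doxorubicin is -2 or below and its z-score without drug lies between -2 and 2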

Igfbp2 | combined z-score class = no change with or without drug; viability z-score with doxorubicin = 0.45; viability z-score without drug = -0.51
Zfat | combined z-score class = no change with or without drug; viability z-score with doxorubicin = 0.22; viability z-score without drug = 1.18
Gtf2i | combined z-score class = no change with or without drug; viability z-score with doxorubicin = 0.79; viability z-score without drug = 0
Pcdhb7 | combined z-score class = no change with or without drug; viability z-score with doxorubicin = -1.12; viability z-score without drug = -0.51
Or2ag1b | combined z-score class = no change with or without drug; viability z-score with doxorubicin = -0.22; viability z-score without drug = -1.01
Snx16 | combined z-score class = no change with or without drug; viability z-score with doxorubicin = -0.11; viability z-score without drug = -1.35
Mre11a | combined z-score class = no change with or without drug; viability z-score with doxorubicin = 1.12; viability z-score without drug = -0.17
Gdpd5 | combined z-score class = no change with or without drug; viability z-score with doxorubicin = 1.35; viability z-score without drug = -0.17
Gdf9 | combined z-score class = no change with or without drug; viability z-score with doxorubicin = -1.12; viability z-score without drug = -0.67
Gorab | combined z-score class = no change with or without drug; viability z-score with doxorubicin = 0.79; viability z-score without drug = 0.34
Dao | combined z-score class = no change with or without drug; viability z-score with doxorubicin = -0.11; viability z-score without drug = -0.34
Ccdc121rt1 | combined z-score class = low cell count with doxorubicin only (active); viability z-score with doxorubicin = -2.47; viability z-score without drug = -1.52
Ift56 | combined z-score class = high cell count with doxorubicin only; viability z-score with doxorubicin = 2.25; viability z-score without drug = 1.85
Pum3 | combined z-score class = no change with or without drug; viability z-score with doxorubicin = -0.9; viability z-score without drug = 1.01
Vmn1r17 | combined z-score class = no change with or without drug; viability z-score with doxorubicin = 0; viability z-score without drug = -0.17
Cd55 | combined z-score class = no change with or without drug; viability z-score with doxorubicin = 0.67; viability z-score without drug = -1.18
Mrps18b | combined z-score class = low cell count without drug only; viability z-score with doxorubicin = -0.67; viability z-score without drug = -2.87
Ndufa5 | combined z-score class = low cell count with and without drug; viability z-score with doxorubicin = -3.15; viability z-score without drug = -2.53
Csad | combined z-score class = no change with or without drug; viability z-score with doxorubicin = 1.35; viability z-score without drug = -0.51
Tm9sf3 | combined z-score class = no change with or without drug; viability z-score with doxorubicin = 0.11; viability z-score without drug = 0.51
Or51r1 | combined z-score class = no change with or without drug; viability z-score with doxorubicin = -0.45; viability z-score without drug = -0.67
Mal | combined z-score class = low cell count with and without drug; viability z-score with doxorubicin = -3.15; viability z-score without drug = -2.53
Ranbp1 | combined z-score class = no change with or without drug; viability z-score with doxorubicin = 0.45; viability z-score without drug = 0.34
Pak3 | combined z-score class = no change with or without drug; viability z-score with doxorubicin = 0.67; viability z-score without drug = 0.51
Syt16 | combined z-score class = no change with or without drug; viability z-score with doxorubicin = -0.45; viability z-score without drug = -0.17
Impg2 | combined z-score class = no change with or without drug; viability z-score with doxorubicin = -0.22; viability z-score without drug = -0.51
Phf10 | combined z-score class = low cell count with doxorubicin only (active); viability z-score with doxorubicin = -2.7; viability z-score without drug = 1.18
9530056K15Rik | combined z-score class = no change with or without drug; viability z-score with doxorubicin = -0.34; viability z-score without drug = -0.17
